Source: PMC5695913
No constants are given. Whether binding was seen depends on the method and setting. Binding seen in cells or lysates may run through a third protein. Some results given as binding are weak or reduced against the parent protein; the word gives no strength.

Chains of the proteins cited; added tags and fusions are not shown.
UniProt P11166: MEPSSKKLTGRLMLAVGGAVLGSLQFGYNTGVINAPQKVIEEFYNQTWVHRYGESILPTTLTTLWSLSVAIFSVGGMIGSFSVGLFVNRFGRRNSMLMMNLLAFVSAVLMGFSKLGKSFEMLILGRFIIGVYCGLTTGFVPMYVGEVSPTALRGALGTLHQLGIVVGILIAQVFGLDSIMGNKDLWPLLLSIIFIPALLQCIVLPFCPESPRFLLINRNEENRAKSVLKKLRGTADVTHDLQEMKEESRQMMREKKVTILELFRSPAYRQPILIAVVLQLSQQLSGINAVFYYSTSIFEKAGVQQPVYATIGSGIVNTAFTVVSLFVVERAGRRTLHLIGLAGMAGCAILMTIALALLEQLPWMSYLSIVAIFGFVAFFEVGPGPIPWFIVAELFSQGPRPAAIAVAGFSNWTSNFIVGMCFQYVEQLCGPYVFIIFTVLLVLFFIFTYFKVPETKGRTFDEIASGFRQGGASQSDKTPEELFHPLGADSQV

Experiments:
[1] = molecular target: SFB-tagged SNX27 Δ57–83 mutant (UniProt Q8K4V4); assay: co-IP; SNX27 wild type and mutants of Figures S5A, S5B, S6B, S6D and S7C; legends not shown; the text speaks of immunoprecipitation data using SNX27 mutants
[2] = molecular target: SFB-tagged SNX27 Δ65–83 mutant (UniProt Q8K4V4); assay: as above

binding [1]: binds
binding [2]: binds
Substance: glucose transporter 1 (GLUT1) (from UniProt P11166 1-492)
